Data on 14 molecules can be found in article PMC10512220.

No constants are given. Whether binding was seen depends on the method and setting. Binding seen in cells or lysates may run through a third protein. Here binding means that the protein was enriched with, or labelled near, the bait; the list need not be complete. For some assays here: A no says only that the protein was not detected with the bait. Tags and fused reporters may be left off the sequences shown.

T1: GUL-1-GFP (Neurospora crassa) (UniProt Q1K842)
T1 sequence: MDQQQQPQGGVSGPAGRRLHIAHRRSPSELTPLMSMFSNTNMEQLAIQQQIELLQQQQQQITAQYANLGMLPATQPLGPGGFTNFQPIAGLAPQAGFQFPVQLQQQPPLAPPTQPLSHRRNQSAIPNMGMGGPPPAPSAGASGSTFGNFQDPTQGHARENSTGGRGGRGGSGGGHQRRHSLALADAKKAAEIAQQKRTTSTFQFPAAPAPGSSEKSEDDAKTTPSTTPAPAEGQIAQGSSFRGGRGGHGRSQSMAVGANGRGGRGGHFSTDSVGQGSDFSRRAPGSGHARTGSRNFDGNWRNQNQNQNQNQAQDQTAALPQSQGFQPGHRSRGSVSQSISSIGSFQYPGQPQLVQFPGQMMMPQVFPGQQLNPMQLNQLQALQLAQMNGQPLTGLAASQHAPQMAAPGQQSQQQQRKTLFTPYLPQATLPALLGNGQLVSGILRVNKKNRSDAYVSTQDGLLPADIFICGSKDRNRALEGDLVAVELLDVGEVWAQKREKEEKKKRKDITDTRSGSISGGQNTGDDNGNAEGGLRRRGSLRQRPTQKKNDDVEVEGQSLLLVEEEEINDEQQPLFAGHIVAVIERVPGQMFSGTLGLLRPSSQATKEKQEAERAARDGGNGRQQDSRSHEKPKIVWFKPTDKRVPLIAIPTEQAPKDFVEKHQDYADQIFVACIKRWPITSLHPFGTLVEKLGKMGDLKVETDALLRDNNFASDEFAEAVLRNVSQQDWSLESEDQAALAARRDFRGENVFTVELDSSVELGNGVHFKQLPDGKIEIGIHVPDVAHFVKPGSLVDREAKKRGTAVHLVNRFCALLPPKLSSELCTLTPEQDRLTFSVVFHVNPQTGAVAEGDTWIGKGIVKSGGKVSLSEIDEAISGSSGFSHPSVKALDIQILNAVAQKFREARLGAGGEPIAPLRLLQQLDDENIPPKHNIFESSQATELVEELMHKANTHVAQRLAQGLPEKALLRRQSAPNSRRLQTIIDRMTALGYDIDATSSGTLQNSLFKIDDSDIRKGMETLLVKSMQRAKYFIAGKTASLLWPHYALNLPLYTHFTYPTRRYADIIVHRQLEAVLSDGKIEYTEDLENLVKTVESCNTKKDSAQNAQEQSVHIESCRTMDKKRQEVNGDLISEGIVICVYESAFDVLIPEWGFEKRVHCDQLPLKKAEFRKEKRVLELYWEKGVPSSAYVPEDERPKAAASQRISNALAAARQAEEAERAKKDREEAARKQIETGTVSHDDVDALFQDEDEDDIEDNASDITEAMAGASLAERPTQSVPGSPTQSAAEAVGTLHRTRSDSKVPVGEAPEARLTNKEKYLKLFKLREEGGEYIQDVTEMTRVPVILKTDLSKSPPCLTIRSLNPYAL

B1: eIF3 subunit (NCU09707) (protein, UniProt Q7S2R9 1-237)
chain: MNGEDPQERPDFIRAIINGLERYNPEAAGTLEAYLTQQCEEKFCDCNANRALLKLYQLNPDRIKDEVITNILVKAMTQFPSPQFDLALHLLSPSQSNPGPNSSSELTEAVSKLRALNAQLEGAEYARFWATLDSDDLYADLTTDIAGFEDMIRVRIAQLVGQSYREIQFPVLESWLGLNNSEATTQFITETCGWKVEGDVVQIPKNADNEARKAEIREDVNVDMFARVIKRSWEESA
B2: VTS-1 (NCU00311) (protein, UniProt Q7RZQ3 1-620)
chain: MLNMSNIMSNRNSTPEASNVSSLRPPSSRAIGSNHGLRASADVAALTGAQAAASRIRPSSDFYGQPQSGQVQGNAELDPQDKLAQQWIADIDQYETTLEEMAAATLDQDFKDELSAIEQWFRVLSEAERTAALYALLQQTTQVQIRFFIQVLQQMGKNHPMSGVLSPANFDKDPMSSRLSDAMGKLEVGSARNSLARPSGGANKRHSGLDQTTINTMFPDAVAAIATEKAKFTQQTGNPPPSNRNSLVDNRNSLAAPTVSGPKDDINGQNPASPWGPSDTSRPKSSTGQTPMGQFVQPPPSAGGLRSPRPPQLSSNTNIQSTTLTAAEPQLTELPLLSPYTSSGNWASMVNTPMVPTFGQTQGNNADMVANATAMKLAALSTVNNRFALDDARRYRRARSNDGAPGQSHAQHPLSPGPQGIPSTNVVMINEHGQVLSHDHVLALQQQQQQGLQQGLGGFGGHRSRPTSPGIAMPNYGSALQFTSPQNNGFLSAYDGGAPGLINNGLVPMMGQFNLGGHHAEGYLSDHSEINRGRSPRGRRGSSKPPEDPTDPTLLQDIPSWLRSLRLHKYTDNLKDMKWTDLIELDDKQLEERGVNALGARRKMLKVFEQVKEAKKEGKI
B3: eIF3 subunit (NCU02813) (protein, UniProt Q7SEK1 1-434)
chain: MATPQLIFVDGTFAELAQEMADFVQVGEQVQPLLEQDKREDALDLIVKASHSLNAAPEKDFTPAYNLLIHLVLQSEEPKKYLPTLCANLLKPITSSPTHGFTLASNALTTIFNLLDKSNPLRFNVFMQIVRFIRQNSQFDLLKPRLKNVEGWLQEWKSDSESQRKLYVEVSDAANDGGDQEESYFYLLKALATFDRDNQDEVASDEAQKLSLRALRMAISSPTRFDFNDLRSLPSVHALSDSHPVYSQLLDIFTEQDLEDYNDFRDEHQGWIENEKLDHEKLQRKMRLLTFASLAASTPNREIPYASIAKALQIPDEDVEMWTIDVIRSKLVEGRLSQKQKVFLVHRTTYRVFGEKQWRELGTRVDQFKTVVDRLVGVVRKAQTDVEAQREREQQELERKLANAGLGESEQRGGNRGGRTGGARQTRQRTDDDD
B4: ADV-1 (NCU07392) (protein, UniProt Q9P326 1-696)
chain: MSTQSPNHHEDITKTSSVNMTTTTTTTKTKAAAKAGTNAAPKQKTQMHRRSRTGCYTCRLRRKKCDEGSPMCTACKHLGLCCEYKRPMWWSNNDARRKQKDEIKMIIKRKKLSEKSSHTIQTSINTPPGLSHSLPTSATFSDPLDRNRSASIDSHFGFNFNSPQHGQDFAAFATPQIHVNGEYMFPPFSPYEIDMKTERQIFINDIPTLRESTVSTFSTYQTPPPPGTILPSFPLEGEWTEQVFSERRESLTEETFNANFFDFACDPAMASSQVAIELDDGDQKLLDHFVQHVLPTIFPILESNQHGSISSELVLPSLANNKGYLHCCLSIAAQHFKSTMGIQNEEIDNDIMRHRYATITWLCEALNRDENHQPILDATLGLIFFQCIVGRPEDTLPDIPWHQHFQAVVSLVQKLDLAGLVSDITKPLAHTPFNMTLTSWIDILGATMLGSSPLFAHTYRNKHLSINNHSLGLRELMGCEDRVMYLISEIACLESLKNQGMDDITLCQHVRGLGDEISNTEVNEGTLVEPYNANGTLSPKQLSKNITAAFRLAARIYLCSLVPGFYPAQPSCMGLVEKLTAVLQLIPSGVNGYDRSLTWVYLIGGSVSVPGSSFRDFFENRVAQLGDVANSGSFGRMTVLLREVWLQYEAILAAAEAAAGTSSLSSETPQQQQQVNAHYVRWREVMQIKGWDYLLI

In the first assay the target is T1, GUL-1-GFP (Neurospora crassa). As to the kind of experiment: affinity purification with mass spectrometry; GUL-1-GFP captured from cleared crude N. crassa extract on GFP-Trap magnetic agarose beads overnight at 4°C; washed with 25 mM Tris HCl pH 7.5, 150 mM NaCl, 1.5 mM MgCl2, 1% NP-40, 1 mM EDTA; LC-MS-MS, label-free quantification against a strain expressing GFP alone; three biological replicates; cultures under standard growth conditions, without NH4NO3 for the last 1 h, or with 10^-5 M Nikkomycin Z for the last 1 h.
In the case of PUB (NCU07874) (from UniProt Q7SAS0), the binding entry is listed as “binds”.

Regarding “MAK-1 (NCU09842) (from UniProt Q7RVR1 1-413) (enzyme)”, the binding result is recorded as “binds”.

For the molecule JSN-1 (NCU06199) (from UniProt Q7SBC4), the binding result is “binds”.

Take “MAK-2 (NCU02393) (from UniProt V5IKE7 1-352) (enzyme)”: the binding result is listed as “binds”.

On to “PP2A [PPH-1 (NCU06630)] (from UniProt P48580 1-327) (enzyme)”, for which the binding entry is given as “binds”.

Take “SCP-160 (NCU03897) (from UniProt V5IM50)”: the binding entry was “binds”.

For the molecule “glycosyl-hydrolase GH13-9 (NCU05429) (from UniProt V5IQZ6) (enzyme)”, the binding entry is on record as “binds”.

As to “C2H2-type zinc-finger domain transcription factor (NCU07952) (from UniProt Q7S932)”, the binding result was “binds”.

Regarding SNF-5 (NCU02076), the binding entry was “binds”.

As for “transcription elongation factor (NCU02563) (from UniProt Q7SHQ2)”, the binding result is “binds”.

The target is the same in a further assay. The assay is described as above. This is another data set of the same source.
For B1, the binding result is recorded as “binds”.

For the molecule B2, the binding result is on record as “binds”.

With B3, the binding entry is “binds”.

On to B4, for which the binding entry is “no binding”.
